Laboratory results from publication PMC10681901.

Sequences of proteins named here, by UniProt entry; tags and fusion partners are left off.
UniProt P29351: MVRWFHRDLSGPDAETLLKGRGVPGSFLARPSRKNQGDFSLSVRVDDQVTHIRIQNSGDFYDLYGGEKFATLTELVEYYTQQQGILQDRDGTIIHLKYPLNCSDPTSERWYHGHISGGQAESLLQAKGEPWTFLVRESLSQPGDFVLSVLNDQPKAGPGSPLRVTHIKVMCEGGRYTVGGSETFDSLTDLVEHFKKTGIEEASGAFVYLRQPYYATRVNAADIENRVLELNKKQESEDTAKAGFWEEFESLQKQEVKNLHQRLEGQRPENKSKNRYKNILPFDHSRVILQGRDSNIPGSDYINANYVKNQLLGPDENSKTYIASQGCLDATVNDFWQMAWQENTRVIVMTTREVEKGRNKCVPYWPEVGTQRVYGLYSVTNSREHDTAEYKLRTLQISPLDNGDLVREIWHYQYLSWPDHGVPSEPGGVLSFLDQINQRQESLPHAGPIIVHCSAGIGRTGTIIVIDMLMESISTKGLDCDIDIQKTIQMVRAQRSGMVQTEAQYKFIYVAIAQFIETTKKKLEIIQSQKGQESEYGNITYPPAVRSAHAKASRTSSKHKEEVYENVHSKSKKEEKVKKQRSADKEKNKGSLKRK

Target: T1, CD3γ-Y-Y biotinylated peptide (cytoplasmic tail of mouse CD3γ, unphosphorylated) (mouse)
T1 sequence (peptide, biotin on the N-terminus; free C-terminal COOH): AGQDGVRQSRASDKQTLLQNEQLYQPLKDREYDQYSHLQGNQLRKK
Assay: affinity purification with mass spectrometry; biotinylated peptide added to lysates (0.35% Brij96V) of SILAC-labelled 2B4 T cells (200 × 10^6 cells), captured on StrepT-actine Sepharose beads, heavy and light samples mixed in the third wash, MS-MS; peptides and beads in vast molecular excess; only the target purified

binding: no binding
Substance: Src homology 2-containing protein tyrosine phosphatase-1 (SHP-1), endogenous in 2B4 T cells (from UniProt P29351 1-595) (enzyme)

These are yes or no findings as the source states them, for the method shown. Binding seen in cells or lysates may run through a third protein. These calls come from enrichment with a bait or labelling near it, and not all partners need be listed. A no says only that the protein was not detected with the bait.
